Reference: PubChem BioAssay AID686938 (Drosophila RNAi Screening Center, 2013)
Aim: 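Looking for CRAC channel components and the factors controlling them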 (primary screen). System: Drosophila S2R+ cells. Reagents: long dsRNA against Drosophila genes, about 0.25 µg dsRNA per well, roughly 10,000 cells. Time to read-out: 5 days of knock-down before the calcium assay. Treatment: thapsigargin (SERCA pump blocker) to empty calcium stores; entry signal taken 4 min after adding it. Measured: 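Per-well fluo-4 fluorescence in two replicates, unnormalised, measured in resting cells and 4 min after store depletion by the SERCA blocker thapsigargin; ratio of the two present in few wells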. Reading the numbers: calcium entry signal: higher = stronger calcium signal after store depletion; resting calcium signal: higher = higher resting calcium signal. Active means: 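Called when the plate z-score of the entry-to-rest ratio, mean of duplicates, falls below −3; wells with low overall dye signal (Fmax z below −2) or more than five off-targets excluded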. Calls: active = strongly reduced calcium entry; inactive = no strong reduction.
In all, the deposit lists about 23,000 reagents; below is a random part of those with a known target gene and a result. Of all reagents, 75 (0.33%) are marked active. 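Raw plate signals without normalisation; calls rest on plate z-scores that were not deposited; ratio present for only 364 wells.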 A plus sign joins genes that one reagent is predicted to hit. Not given: the dose of the treatment.

| gene | DRSC id | calcium entry signal, replicate 1 (fluorescence units) | calcium entry signal, replicate 2 (fluorescence units) | resting calcium signal, replicate 1 (fluorescence units) | resting calcium signal, replicate 2 (fluorescence units) | outcome |
| --- | --- | --- | --- | --- | --- | --- |
| snRNA:U1:95Cc + snRNA:U1:95Cb | DRSC13641 | 3.64e7 | 3.41e7 | 1.66e7 | 1.66e7 | inactive |
| Mal-A8 (Maltase A8) | DRSC07234 | 3.79e7 | 4.46e7 | 1.68e7 | 1.67e7 | inactive |
| Obp58c (Odorant-binding protein 58c) | DRSC04166 | 3.90e7 | 4.11e7 | 1.95e7 | 1.85e7 | inactive |
| rdog (red dog mine) | DRSC14431 | 2.64e7 | 3.29e7 | 1.23e7 | 1.65e7 | inactive |
| Alp2 (Alkaline phosphatase 2) | DRSC04354 | 4.93e7 | 5.33e7 | 2.56e7 | 2.36e7 | inactive |
| mRpS25 (mitochondrial ribosomal protein S25) | DRSC19598 | 4.13e7 | 3.58e7 | 1.95e7 | 1.45e7 | inactive |
| CG6508 | DRSC02963 | 2.87e7 | 3.36e7 | 1.31e7 | 1.51e7 | inactive |
| CG14984 | DRSC08442 | 3.85e7 | 4.99e7 | 1.93e7 | 2.15e7 | inactive |
| CG10064 | DRSC09689 | 3.55e7 | 4.10e7 | 1.71e7 | 1.85e7 | inactive |
| svp (seven up) | DRSC12899 | 3.40e7 | 3.83e7 | 1.92e7 | 1.82e7 | inactive |
| svp (seven up) | DRSC15311 | 1.60e7 | 2.42e7 | 1.10e7 | 1.43e7 | inactive |
| svp (seven up) | DRSC17075 | 3.27e7 | 5.19e7 | 1.59e7 | 2.66e7 | inactive |
| CG33158 | DRSC09708 | 6.28e7 | 3.05e7 | 2.81e7 | 1.63e7 | inactive |
| CG33158 | DRSC09709 | 3.79e7 | 4.18e7 | 1.85e7 | 1.62e7 | inactive |
| CG33158 | DRSC10438 | 4.01e7 | 5.77e7 | 1.80e7 | 2.30e7 | inactive |
| Or65a (Odorant receptor 65a) | DRSC08808 | 2.74e7 | 4.21e7 | 1.76e7 | 1.75e7 | inactive |
| CG14227 | DRSC19584 | 3.98e7 | 2.68e7 | 1.99e7 | 1.38e7 | inactive |
| Mat1 (Menage a trois 1) | DRSC07465 | 3.75e7 | 5.53e7 | 1.81e7 | 3.18e7 | inactive |
| CG33702 | DRSC08986 | 4.24e7 | 4.92e7 | 2.24e7 | 2.34e7 | inactive |
| CG15239 | DRSC17972 | 2.31e7 | 3.26e7 | 1.15e7 | 1.44e7 | inactive |
| CG33635 | DRSC00006 | 2.01e7 | 2.48e7 | 1.13e7 | 1.13e7 | inactive |
| CG9067 | DRSC07328 | 2.38e7 | 4.02e7 | 1.32e7 | 1.83e7 | inactive |
| Smg6 | DRSC16029 | 4.46e7 | 4.36e7 | 2.02e7 | 1.83e7 | inactive |

Copied from the list:
CG6508 [DRSC02963], resting calcium signal, replicate 1 (fluorescence units): 1.31e7
CG33158 [DRSC09708], resting calcium signal, replicate 1 (fluorescence units) → 2.81e7
Entry of CG14227 [DRSC19584] in “resting calcium signal, replicate 2 (fluorescence units)”: 1.38e7
mRpS25 (mitochondrial ribosomal protein S25) [DRSC19598], resting calcium signal, replicate 1 (fluorescence units) → 1.95e7
For “calcium entry signal, replicate 1 (fluorescence units)”, Alp2 (Alkaline phosphatase 2) [DRSC04354] is entered as 4.93e7

Next reagents follow:
| gene | DRSC id | calcium entry signal, replicate 1 (fluorescence units) | calcium entry signal, replicate 2 (fluorescence units) | resting calcium signal, replicate 1 (fluorescence units) | resting calcium signal, replicate 2 (fluorescence units) | outcome |
| --- | --- | --- | --- | --- | --- | --- |
| CG10462 | DRSC02058 | 4.71e7 | – | 2.53e7 | – | inactive |
| CR12798 (pseudo) | DRSC21078 | 5.13e7 | 5.19e7 | 2.41e7 | 2.14e7 | inactive |
| CG10000 | DRSC14170 | 4.02e7 | 5.64e7 | 1.98e7 | 2.41e7 | inactive |
| CG18094 | DRSC02655 | 4.82e7 | 4.83e7 | 2.39e7 | 2.15e7 | inactive |
| CG10026 | DRSC02010 | 6.34e7 | 4.45e7 | 2.96e7 | 1.73e7 | inactive |
| lectin-28C | DRSC03010 | 2.48e7 | 3.47e7 | 1.23e7 | 1.58e7 | inactive |
| AspRS-m (Aspartyl-tRNA synthetase, mitochondrial) | DRSC02646 | 3.92e7 | 2.51e7 | 1.75e7 | 1.13e7 | inactive |
| CG4080 | DRSC10398 | 5.10e7 | 4.25e7 | 3.33e7 | 1.79e7 | inactive |
| CG31178 | DRSC14590 | 3.98e7 | 4.80e7 | 4.60e7 | 2.07e7 | inactive |
| Zasp66 (Z band alternatively spliced PDZ-motif protein 66) | DRSC08932 | 2.71e7 | 4.31e7 | 1.49e7 | 1.89e7 | inactive |
| Zasp66 (Z band alternatively spliced PDZ-motif protein 66) | DRSC10631 | 4.39e7 | 3.36e7 | 2.80e7 | 1.52e7 | inactive |
| Zasp66 (Z band alternatively spliced PDZ-motif protein 66) | DRSC10632 | 3.15e7 | 4.44e7 | 1.50e7 | 1.90e7 | inactive |
| stan (starry night) | DRSC05234 | 3.97e7 | 2.23e7 | 1.98e7 | 1.23e7 | inactive |
| stan (starry night) | DRSC07697 | 3.55e7 | 3.97e7 | 1.70e7 | 1.83e7 | inactive |
| lectin-24Db | DRSC00553 | 5.26e7 | – | 2.78e7 | – | inactive |
| CG3257 | DRSC04351 | 4.45e7 | – | 2.18e7 | – | inactive |
| HLH54F | DRSC07438 | 4.33e7 | 4.91e7 | 1.79e7 | 2.41e7 | inactive |
